# Reference: US10842807B2, “Methods of treating neurodegenerative disorders comprising DNA methyltransferase inhibitors” (Washington University, priority 2016, dated 2020)
# At least one structure is not confirmed: it was looked up by name or label, or the drawing left a doubt.
# Test system: Htt-72Q-expressing primary cortical neurons
# Test: MTS cell viability assay in Htt-expressing primary cortical neurons
# Type: cell-based, mouse
# Conditions: DIV 5 cortical neurons transduced with Htt lentivirus, treated with drug or DMSO (=0 μM), MTS at DIV 14; vs. Htt-72Q (0 μM)
# Protocol: Mouse primary cortical and striatal neurons from embryonic day (E) 15.5 Swiss Webster mouse fetuses (Taconic) were first plated in the minimal essential medium (MEM) containing 10% FBS, 0.45% glucose, 1 mM sodium pyruvate, 2 mM glutamine, 20 U/ml penicillin and 20 μg/ml streptomycin, for 3 h and then maintained in serum-free Neurobasal medium (Life Technologies) containing NeuroCult™ SM1 neuronal supplement ([…] Technologies), 0.5 mM glutamine and 25 μM glutamate for the first 3 d in a humidified incubator (37° C. in 5% CO2). Half of the medium was replaced with Neurobasal medium with SM1 and 0.5 mM glutamine every 3 days. Primary cortical neurons plated on 96-well flat clear bottom black plates (Corning #3904) at 4×10^4 cells/well were infected with Htt exon1 expression lentivirus (Htt-25Q or Htt-72Q) or control empty vector lentivirus at 5 days in vitro (DIV 5). Primary striatal neurons plated on 96-well plates at 1×10^5 cells/well were infected with Htt exon1 expression lentivirus at DIV 4. Viral copy number was adjusted for transduction of neurons on the basis of titer measured using the Lenti-X qRT-PCR titration kit (Clontech), and equal numbers of viral particles of Htt-25Q and Htt-72Q expressing lentiviruses were used for transduction. For the experiments to test effects of DNMT inhibitors, neurons were treated with inhibitors six hours after Htt lentiviral infection. […]
smiles,measurement,value
O=c1ncccn1[C@@H]1O[C@H](CO)[C@@H](O)[C@H]1O [zebularine],viability of Htt-72Q-expressing neurons (MTS assay),no significant difference in survival
